Reference: article PMC9463175
These are yes or no findings as the source states them, for the method shown. In cells and extracts the contact can be indirect. Some entries that bind do so weakly or less than the wild type. Where a sequence is shown, tags or fusion partners need not be part of it.

T1: Flag-ZNF276 (zinc finger protein 276) (UniProt Q8N554)
T1 sequence: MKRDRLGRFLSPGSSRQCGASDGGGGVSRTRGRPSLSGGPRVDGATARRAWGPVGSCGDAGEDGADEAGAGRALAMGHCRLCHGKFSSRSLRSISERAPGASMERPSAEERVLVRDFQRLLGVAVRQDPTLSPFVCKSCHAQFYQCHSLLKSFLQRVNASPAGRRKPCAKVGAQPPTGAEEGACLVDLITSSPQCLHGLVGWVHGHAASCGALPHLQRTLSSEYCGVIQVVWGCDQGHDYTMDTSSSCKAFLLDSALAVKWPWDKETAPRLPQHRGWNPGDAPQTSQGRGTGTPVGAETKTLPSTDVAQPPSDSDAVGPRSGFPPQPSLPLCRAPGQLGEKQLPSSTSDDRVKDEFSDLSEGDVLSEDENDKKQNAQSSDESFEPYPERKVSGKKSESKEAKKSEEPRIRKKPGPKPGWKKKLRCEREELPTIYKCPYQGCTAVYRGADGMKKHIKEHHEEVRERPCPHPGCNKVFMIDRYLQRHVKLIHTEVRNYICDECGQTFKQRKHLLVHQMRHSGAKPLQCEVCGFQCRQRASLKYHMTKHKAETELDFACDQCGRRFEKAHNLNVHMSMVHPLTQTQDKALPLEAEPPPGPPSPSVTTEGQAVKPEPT

T2: HA-MAGEB2 (Melanoma-Associated Antigen B2) (UniProt O15479)
T2 sequence: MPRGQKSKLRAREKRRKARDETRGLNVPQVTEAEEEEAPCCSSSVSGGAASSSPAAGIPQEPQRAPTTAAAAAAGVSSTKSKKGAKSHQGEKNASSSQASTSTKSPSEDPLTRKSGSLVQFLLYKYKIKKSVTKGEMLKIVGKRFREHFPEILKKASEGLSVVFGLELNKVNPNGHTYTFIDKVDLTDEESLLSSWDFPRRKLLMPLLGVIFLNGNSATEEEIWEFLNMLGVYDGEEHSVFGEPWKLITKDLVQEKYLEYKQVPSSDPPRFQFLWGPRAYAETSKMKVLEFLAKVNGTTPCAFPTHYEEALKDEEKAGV


Legend:
[1] = biological target: T1, Flag-ZNF276 (zinc finger protein 276); assay: co-IP; total cell extracts precleared, incubated with anti-Flag or anti-HA 15 min at 4 °C, protein A/G beads overnight; forward and reverse
[2] = biological target: T2, HA-MAGEB2 (Melanoma-Associated Antigen B2); assay: as above

binding [1] | binding [2] | Binder
binds | – | HA-MAGEB2 (Melanoma-Associated Antigen B2) (protein, UniProt O15479 1-319) MPRGQKSKLRAREKRRKARDETRGLNVPQVTEAEEEEAPCCSSSVSGGAASSSPAAGIPQEPQRAPTTAAAAAAGVSSTKSKKGAKSHQGEKNASSSQASTSTKSPSEDPLTRKSGSLVQFLLYKYKIKKSVTKGEMLKIVGKRFREHFPEILKKASEGLSVVFGLELNKVNPNGHTYTFIDKVDLTDEESLLSSWDFPRRKLLMPLLGVIFLNGNSATEEEIWEFLNMLGVYDGEEHSVFGEPWKLITKDLVQEKYLEYKQVPSSDPPRFQFLWGPRAYAETSKMKVLEFLAKVNGTTPCAFPTHYEEALKDEEKAGV
– | binds | Flag-ZNF276 (zinc finger protein 276) (protein, UniProt Q8N554 1-614) MKRDRLGRFLSPGSSRQCGASDGGGGVSRTRGRPSLSGGPRVDGATARRAWGPVGSCGDAGEDGADEAGAGRALAMGHCRLCHGKFSSRSLRSISERAPGASMERPSAEERVLVRDFQRLLGVAVRQDPTLSPFVCKSCHAQFYQCHSLLKSFLQRVNASPAGRRKPCAKVGAQPPTGAEEGACLVDLITSSPQCLHGLVGWVHGHAASCGALPHLQRTLSSEYCGVIQVVWGCDQGHDYTMDTSSSCKAFLLDSALAVKWPWDKETAPRLPQHRGWNPGDAPQTSQGRGTGTPVGAETKTLPSTDVAQPPSDSDAVGPRSGFPPQPSLPLCRAPGQLGEKQLPSSTSDDRVKDEFSDLSEGDVLSEDENDKKQNAQSSDESFEPYPERKVSGKKSESKEAKKSEEPRIRKKPGPKPGWKKKLRCEREELPTIYKCPYQGCTAVYRGADGMKKHIKEHHEEVRERPCPHPGCNKVFMIDRYLQRHVKLIHTEVRNYICDECGQTFKQRKHLLVHQMRHSGAKPLQCEVCGFQCRQRASLKYHMTKHKAETELDFACDQCGRRFEKAHNLNVHMSMVHPLTQTQDKALPLEAEPPPGPPSPSVTTEGQAVKPEPT
